This is one part of the list. These are further read-outs of the screen, such as a control signal, another cell line or another target. No call is given for them. Most of these compounds were active or inconclusive in the main read-out, so they are no random draw. Potencies come from curve fits of mixed quality, noted in brackets.

This assay is described as follows: qHTS Assay for Modulators of Lamin A Splicing. The note with it: HeLa LMNA splicing GFP/RFP minigene ratio, 48 h. The method in brief:
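S3 HeLa stable clones carrying a lamin A-EGFP splicing minigene plus DsRed2 were seeded at 600 cells/well in Opti-MEM with 2% FBS, pin-dosed and incubated 48 h at 37°C. Acumen cytometry (488 nm) gave the GFP/RFP total-intensity ratio.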

Where [1] appears, read: measured here: RFP viability control channel.
The mark [2] stands for this setting: measured here: GFP splicing reporter channel.

Regarding `Cc1ccc2c(c1)cc(C(=O)Nc1ccc(F)cc1F)n2C`, the AC50 (commonly the concentration giving half of the maximal activity seen) under setting [1] is 5.62 µM [rising, full curve].

For the molecule `CCCCCC(=O)N(O)C1CC(=O)N(c2ccccc2)C1=O` (stereo not drawn), the concentration at half-maximal activity (AC50) under setting [1] is 11.2 µM [rising, partial curve].

Consider `O=C(Cc1cc(=O)[nH][nH]1)N/N=C/c1c(F)cccc1Cl`, for which the half-maximal activity concentration (AC50) under setting [1] is 5.62 µM [falling, single point].

`CCCCNC(=S)N/N=C/C1=CCC2CC1C2(C)C` (stereo not drawn): the AC50 runs as follows: under setting [2], 11.2 µM [rising, single point]; under setting [1], 22.4 µM [rising, single point].

As for `O=C(CSc1nc2ccccc2[nH]1)Nc1ccc(F)c(F)c1`, the concentration at half-maximal activity (AC50) under setting [1] is 12.6 µM [rising, single point].

On to `COc1ccccc1/C=C/C=N\N1CCN(Cc2ccccc2Cl)CC1`, for which the AC50 under setting [1] was 12.6 µM [rising, partial curve].

Turning to `CC1CCN(c2ccccc2NC(=S)NC(=O)c2cccs2)CC1`, the concentration at half-maximal activity (AC50) under setting [2] was 14.1 µM [falling, single point] and the half-maximal activity concentration (AC50) under setting [1] was 12.6 µM [falling, partial curve].

As for `COc1ccc(NC(=O)/C(C#N)=C/C=C/c2ccco2)cc1`, under setting [1], the AC50 is 2.51 µM [rising, partial curve, poor fit].

With `O=C1/C(=C/c2ccc3c(c2)OCO3)CCC/C1=C\c1ccc2c(c1)OCO2`, the half-maximal activity concentration (AC50) reads like this: under setting [2], 35.5 µM [falling, single point]; under setting [1], 35.5 µM [falling, single point].

In the case of `CCOC(=O)C(NC(=O)c1ccccc1)=C1CCCCC1`, the concentration at half-maximal activity (AC50) under setting [2] is 31.6 µM [rising, single point].

As for `Cc1nn(C)c(C)c1S(=O)(=O)N1CCCC(C(=O)N2CCN(c3ccc(Cl)cc3)CC2)C1` (stereo not drawn), the AC50 under setting [1] is 15.8 µM [rising, partial curve].

Take `COc1ccc(C(=O)N2CCN=C2SC)cc1OC`: the AC50 under setting [1] is 0.794 µM [falling, full curve, poor fit].

In the case of `CC1=C(C#N)CCC(=O)N1Cc1c(F)cccc1Cl`, under setting [2], the AC50 is 0.0562 µM [falling, full curve].

Consider `CCNC(=O)c1cnc2sc(N3CCCCCC3)nn2c1=O`, for which the AC50 under setting [1] is 0.224 µM [falling, full curve].

For the molecule `COC(=O)c1c(C)sc(-c2c(-c3ccc4c(c3)OCCO4)[nH]c3c2c(=O)n(C)c(=O)n3C)c1O`, the concentration at half-maximal activity (AC50) under setting [2] is 4.47 µM [falling, partial curve].

As for `COC(=O)C1=NN(C(C)=O)C2(CC(=O)N(c3cccc(C)c3)C2=O)C1` (stereo not drawn), under setting [1], the half-maximal activity concentration (AC50) is 0.0631 µM [rising, full curve].

With `Cc1ccc(OCCn2cc(C(=S)N3CCCC3)c3ccccc32)cc1C`, the half-maximal activity concentration (AC50) under setting [1] was 5.62 µM [rising, full curve].

As for `O=C(Nc1cccc(-c2cc3ccccc3oc2=O)c1)c1ccc(Br)o1`, the concentration at half-maximal activity (AC50) under setting [1] is 35.5 µM [rising, single point].

Consider `O=C(CCl)Nc1nc(-c2ccco2)c(-c2ccco2)s1`, for which, under setting [1], the AC50 is 10 µM [rising, partial curve].

On to `C=CCn1c(SCC(=O)Nc2ccc3c(c2)OCO3)nnc1-c1cc(Br)ccc1O`, for which, under setting [2], the half-maximal activity concentration (AC50) is 22.4 µM [rising, single point].

For `CSCCC(NS(=O)(=O)c1cccs1)C(=O)NCc1ccc(C)cc1` (stereo not drawn), under setting [1], the AC50 was 10 µM [rising, single point].

As for `S=c1[nH]nc(CSCc2ccccc2Cl)n1C1CCCCC1`, the concentration at half-maximal activity (AC50) under setting [2] is 0.282 µM [falling, partial curve, poor fit] and the AC50 under setting [1] was 0.1 µM [falling, full curve, poor fit].

Consider `COc1ccc(CNC(=O)c2cccc(C)c2[N+](=O)[O-])cc1`, for which the half-maximal activity concentration (AC50) under setting [2] was 35.5 µM [rising, single point].

Turning to `N=c1c2c(ncn1CCN1CCOCC1)Oc1ccc3ccccc3c1C2c1ccccc1` (stereo not drawn), the concentration at half-maximal activity (AC50) under setting [1] was 2.24 µM [rising, partial curve, poor fit].

As for `CC(C)c1ccc(/C=C/C(=O)NC2=NCCS2)cc1`, the half-maximal activity concentration (AC50) reads like this: under setting [2], 7.08 µM [rising, partial curve, poor fit]; under setting [1], 14.1 µM [rising, single point].

As to `c1ccc(CNc2nc(-c3cccs3)nc3ccccc23)nc1`, the AC50 under setting [2] was 35.5 µM [falling, partial curve, poor fit].

In the case of `Cc1ccc(COc2ccc(Br)cc2/C=N/O)cc1`, the AC50 was 15.8 µM [falling, single point] under setting [2] and 22.4 µM [falling, partial curve] under setting [1].

For the molecule `Cc1ccc(NC(=O)c2c(C)nc3ccccn23)cc1C`, the AC50 under setting [1] is 39.8 µM [falling, partial curve, poor fit].

For the molecule `COc1ccccc1/C=C1\SC(=S)N(N2C(=O)CCCC2=O)C1=O`, the concentration at half-maximal activity (AC50) under setting [1] is 7.94 µM [rising, partial curve, poor fit].

For the molecule `N#CCCN1CCN(C(=S)c2ccc(-c3cc(Cl)ccc3Cl)o2)CC1`, the AC50 under setting [2] is 35.5 µM [rising, single point].

Regarding `N#CCCN1CCN(C2=NC(=O)C(=C3CCCCC3)S2)CC1`, the AC50 under setting [2] was 12.6 µM [rising, partial curve].

On to `Cc1ccc(CN(C(=O)COc2cccc([N+](=O)[O-])c2)c2ccccn2)o1`, for which the AC50 under setting [1] is 17.8 µM [rising, partial curve, poor fit].

As for `CCOC(=O)c1cccc(NC(=O)C(CC(C)C)N2Cc3ccccc3C2=O)c1` (stereo not drawn), the half-maximal activity concentration (AC50) under setting [1] was 31.6 µM [rising, single point].

On to `COc1cccc(NC(=O)c2ccc(NC(=O)C(C)(C)C)cc2)c1`, for which the half-maximal activity concentration (AC50) is 14.1 µM [rising, single point] under setting [2] and 31.6 µM [rising, single point] under setting [1].

As to `Cn1nnnc1SCCNCc1ccc(F)cc1`, the AC50 under setting [2] is 2.24 µM [rising, partial curve].

Consider `CO[C@H]1[C@@H](OC(N)=O)[C@H](O)[C@@H](Oc2ccc3c(O)c(NC(=O)c4ccc(O)c(CC=C(C)C)c4)c(=O)oc3c2C)OC1(C)C`, for which the AC50 runs as follows: under setting [2], 1.41 µM [falling, single point]; under setting [1], 12.6 µM [falling, partial curve, poor fit].

As for `COC(=O)[C@@]1(Cc2ccc(OC)cc2)[C@H]2c3cc(C(=O)N(C)C)n(Cc4ccc(OC(F)(F)F)cc4)c3C[C@H]2CN1C(=O)c1ccccc1`, the half-maximal activity concentration (AC50) is, setting by setting: under setting [2], 10 µM [rising, partial curve]; under setting [1], 15.8 µM [rising, partial curve].

For `Cc1cc(OCC(=O)C(C)(C)C)c2c(C)c(C)c(=O)oc2c1`, the AC50 is 11.2 µM [rising, partial curve] under setting [2] and 10 µM [rising, single point] under setting [1].

`CCCNC(=O)c1ccc(-n2c(-c3ccccc3)cc3c2CCC(C)C3)cc1` (stereo not drawn): the half-maximal activity concentration (AC50) under setting [2] was 3.16 µM [falling, partial curve, poor fit].

For the molecule `COC(=O)C1=C(C(=O)OC)[C@@H]2N(C)c3ccccc3[C@@]23C[C@@H](CO)N=C3N1`, under setting [2], the AC50 was 1.41 µM [rising, single point].

In the case of `Cc1cccc(N2CCN(C(=O)CS(=O)(=O)c3cccc4nsnc34)CC2C)c1` (stereo not drawn), under setting [1], the AC50 is 6.31 µM [rising, single point].

Turning to `CN(C)S(=O)(=O)c1cccc(-c2nnc(SCc3ccc4c(c3)OCCO4)o2)c1`, under setting [1], the AC50 is 22.4 µM [rising, partial curve, poor fit].

Take `O=C(c1ccc(Cl)c(S(=O)(=O)NCc2ccco2)c1)N1CCN(c2ccc(F)cc2)CC1`: the concentration at half-maximal activity (AC50) under setting [1] was 15.8 µM [rising, single point].

As to `CC(=O)Oc1ccc2c(=O)c(Oc3ccccc3)c(C)oc2c1OC(C)=O`, the AC50 was 35.5 µM [rising, single point] under setting [2] and 35.5 µM [rising, single point] under setting [1].

Regarding `Cc1ccc(N(C(=O)CNC(=O)c2ccco2)C(C(=O)NC2CCCC2)c2cccnc2)cc1C` (stereo not drawn), the AC50 under setting [2] was 35.5 µM [rising, single point].

With `Cc1ccc(-c2nc(CS(=O)CC(=O)N3CCN(c4ccc(Cl)cc4)CC3)c(C)o2)cc1` (stereo not drawn), the concentration at half-maximal activity (AC50) was 6.31 µM [falling, single point] under setting [2] and 31.6 µM [rising, single point] under setting [1].

With `CCC(=O)NC(Nc1sc2c(c1C(=O)OC)CCC2)C(Cl)(Cl)Cl` (stereo not drawn), the half-maximal activity concentration (AC50) under setting [1] was 35.5 µM [rising, single point].

As for `O=C(Nc1ccnc(-c2cccnc2)n1)c1ccc(F)cc1`, the concentration at half-maximal activity (AC50) is, setting by setting: under setting [2], 3.55 µM [falling, partial curve]; under setting [1], 3.55 µM [falling, single point].

Consider `O=C(Nc1ccccc1Cl)N1CCN(c2ccc3nnc(-c4ccc(F)cc4)n3n2)CC1`, for which the AC50 was 15.8 µM [rising, partial curve, poor fit] under setting [2] and 11.2 µM [rising, partial curve] under setting [1].

Take `Cc1noc(C)c1S(=O)(=O)N1CCC(C(=O)Nc2ccc(OC(F)(F)F)cc2)CC1`: the AC50 under setting [2] is 17.8 µM [rising, single point].

On to `O=C(CNC(=O)c1ccccc1)N/N=C/c1ccc([N+](=O)[O-])o1`, for which the AC50 under setting [1] is 35.5 µM [rising, single point].

As for `Cc1cc(C)c(S(=O)(=O)NCC(c2cccs2)S(=O)(=O)c2ccccc2)c(C)c1` (stereo not drawn), the AC50 under setting [1] was 35.5 µM [rising, single point].

With `Cc1ccc(C(=O)NNC(=S)NC(=O)c2ccc(Cl)cc2)cc1`, under setting [2], the AC50 is 35.5 µM [rising, single point].

For the molecule `CCOc1cc(CNCC(C)C)c(Cl)cc1OCC(=O)Nc1ccccc1`, the concentration at half-maximal activity (AC50) under setting [2] was 0.708 µM [falling, full curve, poor fit].

As to `CCOC(=O)c1c(O)c2c([nH]c1=O)CCCC2`, the concentration at half-maximal activity (AC50) is, setting by setting: under setting [2], 3.16 µM [falling, single point]; under setting [1], 4.47 µM [falling, partial curve].

For `Cc1ccc(NCc2nc3ccccc3n2CCOc2ccccc2)cc1`, the AC50 under setting [1] is 31.6 µM [rising, single point].

Take `Cc1cc(NC(=O)Nc2nc3c(s2)CCCCCC3)ccc1Br`: the AC50 under setting [2] is 11.2 µM [falling, partial curve] and the concentration at half-maximal activity (AC50) under setting [1] was 12.6 µM [falling, partial curve].
